In the supplement of paper PMC8551327:
Where “and” joins values, the source holds several entries; their conditions need not be identical. Equal values may be shown once. Where a name gives a salt, the structure may show the parent alone. This is one part of the list. Rule as the data show it: active = 1.25 or more and inactive = the rest. Most values come without repeats; read them as rough.

system: Kcc2-LUC knock-in mouse primary cortical neurons (Kcc2 promoter reporter); experiment: Kcc2 promoter-driven luciferase activity relative to vehicle control (fold of vehicle (ratio)); higher = stronger Kcc2 promoter activation (Kcc2 expression enhancer); settings: 100 nM; 48 h

SMILES	Kcc2 promoter-driven luciferase activity
O=C1N[C@@H]2C(=C[C@H](O)[C@@H](O)[C@H]2O)c2cc3c(cc21)OCO3 [Lycoricidine]	inactive: 1.12
CC1=C[C@H]2O[C@@H]3[C@H](O)[C@@H](O)[C@@](C)([C@@]2(CO)CC1)[C@]31CO1	inactive: 0.58
C=C(C)[C@H]1Cc2c(ccc3c2O[C@@H]2COc4cc(OC)c(OC)cc4[C@@H]2C3=O)O1 [Rotenone]	inactive: 0.22
CC[C@](C)(O)C(=O)O[C@H]1C(=O)O[C@@H]2C[C@H]3C(C)=C[C@H](O)[C@@H](O)[C@]3(C)[C@H]3[C@@]4(O)OC[C@]32[C@@H]1[C@@H](C)[C@H]4O	inactive: 0.666
CCC[CH2][Sn]1([CH2]CCC)[S]CC[N]1S(=O)(=O)c1ccc(C)cc1	inactive: 0.99
CC(C)C1(NC(=O)C2CC3c4cccc5[nH]cc(c45)CC3N(C)C2)OC2(O)C3CCCN3C(=O)C(Cc3ccccc3)N2C1=O (centres undefined) [Nehydrin]	inactive: 0.86
CO[C@@H](/C(C)=C/C=C/C(C)=C/c1coc(C)n1)[C@@H](C)[C@@H]1C[C@H](O)[C@@]2(C)O[C@@H]2/C=C/[C@@H](C)[C@H]2C[C@H](CC(=O)O2)C[C@@H]2O[C@H]2C(=O)O1 [Rhizoxin]	inactive: 0.54
COc1cc2c(c(OC)c1OC)-c1ccc(OC)c(=O)cc1[C@@H](NC(C)=O)CC2 [Colchicine]	active: 1.57
CC1OC(O[C@@H]2C=C3CC[C@@H]4[C@H](CC[C@]5(C)[C@@H](c6ccc(=O)oc6)CC[C@]45O)[C@@]3(C)CC2)C(O)C(OC2OC(CO)C(O)C(O)C2O)C1O (some centres undefined)	inactive: 1.18
CC(C)(Br)C(=O)C(Br)Br [1,1,3-Tribromo-3-mthyl-2-butanone]	inactive: 0.87
C[C@H]1Oc2cc3c(-c4c(O)cc(O)c5c(O)c6c(cc45)O[C@H](C)[C@@H](C)C6=O)c(O)cc(O)c3c(O)c2C(=O)[C@@H]1C [Chaetochromin A]	active: 1.33
O=[N+]([O-])c1ccc2c(c1)/C(=N/N=C1c3ccccc3Cc3ccccc31)c1cc([N+](=O)[O-])cc([N+](=O)[O-])c1-2	active: 1.25
COc1ccc(C[C@@H]2NC[C@@H](O)[C@@H]2OC(C)=O)cc1	inactive: 1.17
CC(=O)O[C@H]1C(=O)[C@@]2(C)[C@H]([C@H](OC(=O)c3ccccc3)[C@]3(O)C[C@H](O)C(C)=C1C3(C)C)[C@]1(OC(C)=O)CO[C@@H]1C[C@@H]2O [Baccatin III]	inactive: 0.18
COC(=O)[C@@]12OC[C@]34[C@H]([C@@H](O)[C@@H]1O)[C@@]1(C)CC(=O)C(O)=C(C)[C@@H]1C[C@H]3OC(=O)[C@H](OC(=O)/C=C(\C)C(C)C)[C@@H]24	inactive: 0.86
Cc1cc2c(C(C)C)c(O)c(O)c(C=O)c2c(O)c1-c1c(C)cc2c(C(C)C)c(O)c(O)c(C=O)c2c1O [Gossypol]	inactive: 0.99
COC(=O)C1=COC(C)C2CN3CCC4(C(=O)Nc5ccccc54)C3CC12 (centres undefined) [Isopteropodin]	inactive: 0.713
O=C1C=C2C=CC3CC2(O1)C1CCCCN31 (centres undefined) [Virosecurinine]	inactive: 0.6 and inactive: 1.19
C/C=C1/CN2C3CC45c6ccccc6N(C)C4C2CC1C3C5O (centres undefined) [Tetraphyllicine]	active: 1.29
[O-][Cl+3]([O-])([O-])[O-].c1ccc(-c2csc3c4ccccc4c4ccccc4[n+]23)cc1 [3-phenyl-[1,3]thiazolo[3,2-f]phenanthridin-4-ium;perchlorate]	inactive: 0.91

SMILES	Kcc2 promoter-driven luciferase activity
COc1ccc2c(c1OC)CN1CCc3cc4c(cc3[C@@H]1C2)OCO4 [Canadine]	inactive: 0.5
Cc1cc(N(CCCl)CCCl)ccc1/C=N/NC(=O)Cc1cc(=O)oc2cc(O)ccc12	inactive: 0.99
CCCNC1=C(C)C(=O)C2=C(C1=O)[C@H](COC(N)=O)[C@]1(OC)[C@@H]3N[C@@H]3CN21	inactive: 1.2
CCC1/C=C/C=C/CC(C)C(O)C(C)(O)C(=O)C(C)C(O)C(C)C(=O)C(C)C(O)C(C)/C=C/C(=O)OC2C(C)C(CC1)OC1(CCC(C)C(CC(C)O)O1)C2C.CCC1/C=C/C=C/CC(C)C(O)C(C)(O)C(=O)C(C)C(O)C(C)C(=O)C(C)C(O)C(C)/C=C/C(=O)OC2C(C)C(CC1)OC1(OC(CC(C)O)C(C)CC1=O)C2C.CCC1/C=C/C=C/CC(C)C(O)C(C)C(=O)C(C)C(O)C(C)C(=O)C(C)C(O)C(C)/C=C/C(=O)OC2C(C)C(CC1)OC1(CCC(C)C(CC(C)O)O1)C2C (centres undefined) [Oligomycin A, B, and C]	inactive: 0.06
CCC(=O)OC1CCn2c1nc1c2C(=O)C(C)=C(N2CC2)C1=O (centres undefined)	inactive: 0.91
CC(=O)[O][Pb]([O]C(C)=O)([c]1ccccc1)[c]1ccccc1 [Diphenyllead diacetate]	inactive: 0.71
CC(C)c1oc(=O)cc2c1[C@@H](O)[C@H]1OC(=O)[C@@]3(C)[C@@H](O)[C@H]4O[C@H]4[C@@]2(C)[C@@H]13 [Nagilactone C]	inactive: 1.09
COc1ccc(NC2=NCCO2)c2c1CCCC2	inactive: 0.62
O=[N+]([O-])[O-].O=[N+]([O-])[O-].O=[N+]([O-])[O-].[Ga+3] [gallium;nitric acid]	inactive: 1.06
C[C@@H]1OC(=O)[C@H]2C[C@H]3CCCC[C@@H]3[C@@H](/C=C/[C@H]3CCC[C@H](C)N3C)[C@@H]12 [Himbacine]	inactive: 0.56
CC(C)[C@@H]1NC(=O)[C@H](C)OC(=O)[C@@H](C(C)C)NC(=O)[C@@H](C(C)C)OC(=O)[C@H](C(C)C)NC(=O)[C@H](C)OC(=O)[C@@H](C(C)C)NC(=O)[C@@H](C(C)C)OC(=O)[C@H](C(C)C)NC(=O)[C@H](C)OC(=O)[C@@H](C(C)C)NC(=O)[C@@H](C(C)C)OC1=O [Valinomycin]	inactive: 0.92
CC(C)C[C@H]1C(=O)N2CCC[C@H]2[C@]2(O)O[C@](NC(=O)[C@@H]3C=C4c5cccc6[nH]c(Br)c(c56)C[C@H]4N(C)C3)(C(C)C)C(=O)N12	inactive: 0.75
COc1ccc(O)c2c(=O)c3c(OC)cc4c(c3oc12)[C@@H]1C=CO[C@@H]1O4 [5-Methoxysterigmatocystin]	inactive: 0.88
CC[C@H]1CN2CCc3cc(OC)c(OC)cc3[C@@H]2C[C@@H]1C[C@H]1NCCc2cc(O)c(OC)cc21 [Cephaelinehydrochloride]	inactive: 1.05
COCC1O[C@H](O[C@@H]2C3=C(C(C)C)CC[C@]3(C)/C=C3\[C@@H](CC[C@]3(O)COC)[C@@H](C)[C@H]2O)C(O)C2OC3O[C@]12O[C@@]3(C)C1CO1 (some centres undefined) [Cotylenin A]	inactive: 1.19
NC1CCCCC1N.[Cl][Pt][Cl] (centres undefined) [Dichloro(1,2-diaminocyclohexane)platinum(II)]	inactive: 1.02
C/C(=N\N=C(/[Se])N1CC2CCC(CC2)C1)c1ccccn1	inactive: 1.2
Cc1c(N)nc([C@H](CC(N)=O)NC[C@H](N)C(N)=O)nc1C(=O)N[C@H](C(=O)N[C@H](C)[C@@H](O)[C@H](C)C(=O)N[C@H](C(=O)NCCc1nc(-c2nc(C(=O)NCCC[S+](C)C)cs2)cs1)[C@@H](C)O)[C@@H](OC1OC(CO)C(O)C(O)C1OC1OC(CO)C(O)C(OC(N)=O)C1O)c1cnc[nH]1 (some centres undefined) [Bleomycin Sulfate]	inactive: 0.99
CC(C)(O)[C@@H]1[C@H]2OC(=O)[C@@H]1[C@]1(O)C[C@H]3O[C@]34C(=O)O[C@H]2[C@]14C [Picrotin]	inactive: 0.55

Random excerpt: two compounds from above.
SMILES	Kcc2 promoter-driven luciferase activity
C[C@@H]1OC(=O)[C@H]2C[C@H]3CCCC[C@@H]3[C@@H](/C=C/[C@H]3CCC[C@H](C)N3C)[C@@H]12 [Himbacine]	inactive: 0.56
O=[N+]([O-])[O-].O=[N+]([O-])[O-].O=[N+]([O-])[O-].[Ga+3] [gallium;nitric acid]	inactive: 1.06
